Test results taken from publication PMC3402432.
Results are given in words; binding and its absence hold for the method and conditions named. For some of these results: Binding seen in cells or lysates may run through a third protein. Some results given as binding are weak or reduced against the parent protein; the word gives no strength. For some of these results: Where a sequence is shown, tags or fusion partners need not be part of it.

The chains behind the UniProt entries cited, without tags or fusion partners.
UniProt P03129: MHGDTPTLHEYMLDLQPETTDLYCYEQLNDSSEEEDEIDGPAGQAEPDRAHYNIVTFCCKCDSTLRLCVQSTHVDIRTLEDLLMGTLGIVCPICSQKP

T1: GST-E7-Flag fusion protein of HPV5 E7 (human papillomavirus type 5 (HPV5)) (UniProt P06932)
T1 sequence: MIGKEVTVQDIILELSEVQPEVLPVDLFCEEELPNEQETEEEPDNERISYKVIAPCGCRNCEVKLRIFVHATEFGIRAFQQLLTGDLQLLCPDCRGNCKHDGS


Columns and labels:
[1] = target: GST-E7-Flag fusion protein of HPV16 E7 (human papillomavirus type 16 (HPV16)) (UniProt P03129); test: pull-down; 20 ug purified GST-E7-Flag incubated with 400 ug HaCaT lysate overnight at 4 C in binding buffer (20 mM Tris HCl pH 7.5, 0.6 mM EDTA, 70 mM NaCl, 0.01% NP-40, protease inhibitors); glutathione sepharose 4B 2 h at 4 C, five washes; immunoblot for pRb and GST; only the target purified
[2] = target: T1, GST-E7-Flag fusion protein of HPV5 E7 (human papillomavirus type 5 (HPV5)); test: as above
[3] = target: GST-E7-Flag fusion protein of HPV16 E7 (human papillomavirus type 16 (HPV16)) (UniProt P03129); test: pull-down; 20 ug purified GST-E7-Flag incubated with 0.5 ug recombinant His-pRb overnight at 4 C in binding buffer (20 mM Tris HCl pH 7.5, 0.6 mM EDTA, 70 mM NaCl, 0.01% NP-40, protease inhibitors); glutathione sepharose 4B 2 h at 4 C, five washes; immunoblot for pRb, His and GST; both purified
[4] = target: T1, GST-E7-Flag fusion protein of HPV5 E7 (human papillomavirus type 5 (HPV5)); test: as above

| Binder | binding [1] | binding [2] | binding [3] | binding [4] |
| --- | --- | --- | --- | --- |
| retinoblastoma protein (pRb), endogenous in HaCaT keratinocytes (protein, UniProt P06400 1-928) MPPKTPRKTAATAAAAAAEPPAPPPPPPPEEDPEQDSGPEDLPLVRLEFEETEEPDFTALCQKLKIPDHVRERAWLTWEKVSSVDGVLGGYIQKKKELWGICIFIAAVDLDEMSFTFTELQKNIEISVHKFFNLLKEIDTSTKVDNAMSRLLKKYDVLFALFSKLERTCELIYLTQPSSSISTEINSALVLKVSWITFLLAKGEVLQMEDDLVISFQLMLCVLDYFIKLSPPMLLKEPYKTAVIPINGSPRTPRRGQNRSARIAKQLENDTRIIEVLCKEHECNIDEVKNVYFKNFIPFMNSLGLVTSNGLPEVENLSKRYEEIYLKNKDLDARLFLDHDKTLQTDSIDSFETQRTPRKSNLDEEVNVIPPHTPVRTVMNTIQQLMMILNSASDQPSENLISYFNNCTVNPKESILKRVKDIGYIFKEKFAKAVGQGCVEIGSQRYKLGVRLYYRVMESMLKSEEERLSIQNFSKLLNDNIFHMSLLACALEVVMATYSRSTSQNLDSGTDLSFPWILNVLNLKAFDFYKVIESFIKAEGNLTREMIKHLERCEHRIMESLAWLSDSPLFDLIKQSKDREGPTDHLESACPLNLPLQNNHTAADMYLSPVRSPKKKGSTTRVNSTANAETQATSAFQTQKPLKSTSLSLFYKKVYRLAYLRLNTLCERLLSEHPELEHIIWTLFQHTLQNEYELMRDRHLDQIMMCSMYGICKVKNIDLKFKIIVTAYKDLPHAVQETFKRVLIKEEEYDSIIVFYNSVFMQRLKTNILQYASTRPPTLSPIPHIPRSPYKFPSSPLRIPGGNIYISPLKSPYKISEGLPTPTKMTPRSRILVSIGESFGTSEKFQKINQMVCNSDRVLKRSAEGSNPPKPLKKLRFDIEGSDEADGSKHLPGESKFQQKLAEMTSTRTRMQKQKMNDSMDTSNKEEK | binds | binds | – | – |
| purified recombinant His-pRb (protein, UniProt P06400 1-928) MPPKTPRKTAATAAAAAAEPPAPPPPPPPEEDPEQDSGPEDLPLVRLEFEETEEPDFTALCQKLKIPDHVRERAWLTWEKVSSVDGVLGGYIQKKKELWGICIFIAAVDLDEMSFTFTELQKNIEISVHKFFNLLKEIDTSTKVDNAMSRLLKKYDVLFALFSKLERTCELIYLTQPSSSISTEINSALVLKVSWITFLLAKGEVLQMEDDLVISFQLMLCVLDYFIKLSPPMLLKEPYKTAVIPINGSPRTPRRGQNRSARIAKQLENDTRIIEVLCKEHECNIDEVKNVYFKNFIPFMNSLGLVTSNGLPEVENLSKRYEEIYLKNKDLDARLFLDHDKTLQTDSIDSFETQRTPRKSNLDEEVNVIPPHTPVRTVMNTIQQLMMILNSASDQPSENLISYFNNCTVNPKESILKRVKDIGYIFKEKFAKAVGQGCVEIGSQRYKLGVRLYYRVMESMLKSEEERLSIQNFSKLLNDNIFHMSLLACALEVVMATYSRSTSQNLDSGTDLSFPWILNVLNLKAFDFYKVIESFIKAEGNLTREMIKHLERCEHRIMESLAWLSDSPLFDLIKQSKDREGPTDHLESACPLNLPLQNNHTAADMYLSPVRSPKKKGSTTRVNSTANAETQATSAFQTQKPLKSTSLSLFYKKVYRLAYLRLNTLCERLLSEHPELEHIIWTLFQHTLQNEYELMRDRHLDQIMMCSMYGICKVKNIDLKFKIIVTAYKDLPHAVQETFKRVLIKEEEYDSIIVFYNSVFMQRLKTNILQYASTRPPTLSPIPHIPRSPYKFPSSPLRIPGGNIYISPLKSPYKISEGLPTPTKMTPRSRILVSIGESFGTSEKFQKINQMVCNSDRVLKRSAEGSNPPKPLKKLRFDIEGSDEADGSKHLPGESKFQQKLAEMTSTRTRMQKQKMNDSMDTSNKEEK | – | – | binds | binds |
